Assay results: PMC2605561
Read-outs that look alike come from different tables or passages of the source. These are yes or no findings as the source states them, for the method shown. Binding seen in cells or lysates may run through a third protein. Some results given as binding are weak or reduced against the parent protein; the word gives no strength.

By UniProt entry, the sequences of proteins in these tests, tags left out. Where a name states a change or a piece, a line headed by the entry shows the natural chain unless it says otherwise. Residues count along the entry.
UniProt Q8VI56: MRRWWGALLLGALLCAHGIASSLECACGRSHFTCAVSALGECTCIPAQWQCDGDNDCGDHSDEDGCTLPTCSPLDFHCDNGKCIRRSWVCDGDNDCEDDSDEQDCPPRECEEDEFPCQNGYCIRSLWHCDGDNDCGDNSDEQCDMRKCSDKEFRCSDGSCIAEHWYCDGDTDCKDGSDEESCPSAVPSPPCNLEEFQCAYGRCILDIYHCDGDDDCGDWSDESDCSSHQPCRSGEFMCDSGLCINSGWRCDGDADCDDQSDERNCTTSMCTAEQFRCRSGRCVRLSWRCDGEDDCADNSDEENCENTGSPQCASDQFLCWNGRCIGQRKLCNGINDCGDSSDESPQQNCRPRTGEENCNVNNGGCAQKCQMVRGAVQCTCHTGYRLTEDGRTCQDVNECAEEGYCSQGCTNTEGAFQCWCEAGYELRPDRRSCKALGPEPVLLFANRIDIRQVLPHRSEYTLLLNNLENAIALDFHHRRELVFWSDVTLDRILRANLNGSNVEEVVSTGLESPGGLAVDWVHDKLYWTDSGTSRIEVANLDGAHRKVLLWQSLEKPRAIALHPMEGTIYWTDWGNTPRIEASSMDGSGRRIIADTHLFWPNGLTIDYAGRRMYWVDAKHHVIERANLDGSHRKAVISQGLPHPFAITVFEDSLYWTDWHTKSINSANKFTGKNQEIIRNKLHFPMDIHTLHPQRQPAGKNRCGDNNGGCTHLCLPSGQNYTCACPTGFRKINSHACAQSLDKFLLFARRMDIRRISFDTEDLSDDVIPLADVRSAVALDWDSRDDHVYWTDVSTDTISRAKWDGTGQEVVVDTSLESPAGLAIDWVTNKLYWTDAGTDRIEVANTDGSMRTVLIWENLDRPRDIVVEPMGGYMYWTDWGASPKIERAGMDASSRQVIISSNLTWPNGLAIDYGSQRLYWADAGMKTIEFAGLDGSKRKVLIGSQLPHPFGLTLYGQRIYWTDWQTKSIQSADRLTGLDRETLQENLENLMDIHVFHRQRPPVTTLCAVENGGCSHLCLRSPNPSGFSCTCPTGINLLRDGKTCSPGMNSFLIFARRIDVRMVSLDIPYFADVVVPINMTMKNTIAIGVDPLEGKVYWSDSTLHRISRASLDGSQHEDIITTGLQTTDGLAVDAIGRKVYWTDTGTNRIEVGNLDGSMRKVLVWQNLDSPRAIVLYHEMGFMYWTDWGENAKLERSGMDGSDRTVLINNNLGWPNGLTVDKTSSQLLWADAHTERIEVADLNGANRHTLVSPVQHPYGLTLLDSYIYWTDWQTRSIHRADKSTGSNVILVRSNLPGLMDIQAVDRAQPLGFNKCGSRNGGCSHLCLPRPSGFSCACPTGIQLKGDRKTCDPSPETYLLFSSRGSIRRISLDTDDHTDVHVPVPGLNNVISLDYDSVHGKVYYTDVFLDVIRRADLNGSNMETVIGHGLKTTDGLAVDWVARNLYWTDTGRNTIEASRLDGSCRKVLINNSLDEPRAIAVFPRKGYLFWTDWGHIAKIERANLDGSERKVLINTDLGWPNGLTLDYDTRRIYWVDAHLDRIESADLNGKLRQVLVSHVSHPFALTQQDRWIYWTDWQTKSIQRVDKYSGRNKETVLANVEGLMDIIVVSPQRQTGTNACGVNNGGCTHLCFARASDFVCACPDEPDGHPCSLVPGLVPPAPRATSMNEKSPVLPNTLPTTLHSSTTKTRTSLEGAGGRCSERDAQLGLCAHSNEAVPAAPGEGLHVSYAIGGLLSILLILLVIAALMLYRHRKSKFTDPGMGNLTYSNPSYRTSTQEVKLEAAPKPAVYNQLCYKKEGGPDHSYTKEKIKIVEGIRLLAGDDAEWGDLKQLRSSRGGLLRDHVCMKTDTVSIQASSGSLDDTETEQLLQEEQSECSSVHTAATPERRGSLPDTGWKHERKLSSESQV
LRP4: residues 21-1905 of Q8VI56
LRP4ecto-Fc: residues 21-1725 of Q8VI56
UniProt Q8BFU0, residues 24-243: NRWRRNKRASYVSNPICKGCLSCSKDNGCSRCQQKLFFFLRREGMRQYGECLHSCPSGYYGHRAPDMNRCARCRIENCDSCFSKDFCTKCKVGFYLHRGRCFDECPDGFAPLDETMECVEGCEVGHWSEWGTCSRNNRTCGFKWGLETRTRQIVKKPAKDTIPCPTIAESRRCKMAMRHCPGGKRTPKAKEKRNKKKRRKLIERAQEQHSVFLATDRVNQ
UniProt Q9CQN4, residues 24-206: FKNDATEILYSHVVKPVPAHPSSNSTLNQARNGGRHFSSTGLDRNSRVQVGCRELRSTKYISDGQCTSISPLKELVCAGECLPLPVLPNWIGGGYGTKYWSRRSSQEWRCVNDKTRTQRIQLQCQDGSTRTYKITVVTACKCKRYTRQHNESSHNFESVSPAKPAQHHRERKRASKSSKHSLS

How the values were obtained:
LRP4ecto-Fc [1] = biological target: LRP4ecto-Fc (UniProt Q8VI56); experiment: pull-down; cell-free: LRP4ecto-Fc from medium conjugated to Protein A-Agarose (4 C, 2 hrs), incubated with precleared media containing AP or AP-tagged proteins at 4 C overnight, washed three times with PBS; anti-AP western blot
LRP4 [2] = biological target: LRP4 (UniProt Q8VI56); experiment: co-IP; HEK293A cells expressing LRP4 incubated in equal volumes of media containing AP or AP-tagged proteins at 37 C for 1 hr, cross-linked with dithiobis[succinimidylpropionate] at room temperature for 30 min, lysed (50 mM Tris-HCl pH 7.5, 150 mM NaCl, 1 mM MgCl2, 1 mM CaCl2, 1% Triton X-100); immunoprecipitation with anti-AP antibody and Protein A-Agarose, anti-LRP4 western blot
LRP4ecto-Fc [3] = biological target: LRP4ecto-Fc (UniProt Q8VI56); experiment: pull-down; cell-free: LRP4ecto-Fc from medium conjugated to Protein A-Agarose (4 C, 2 hrs), incubated with precleared media containing AP or AP-tagged proteins at 4 C overnight, washed three times with PBS; anti-AP western blot; remark: listed apart in the source
LRP4 [4] = biological target: LRP4 (UniProt Q8VI56); experiment: co-IP; HEK293A cells expressing LRP4 incubated in equal volumes of media containing AP or AP-tagged proteins at 37 C for 1 hr, cross-linked with dithiobis[succinimidylpropionate] at room temperature for 30 min, lysed (50 mM Tris-HCl pH 7.5, 150 mM NaCl, 1 mM MgCl2, 1 mM CaCl2, 1% Triton X-100); immunoprecipitation with anti-AP antibody and Protein A-Agarose, anti-LRP4 western blot; remark: listed apart in the source

binding (LRP4ecto-Fc [1]) | binding (LRP4 [2]) | binding (LRP4ecto-Fc [3]) | binding (LRP4 [4]) | Molecule
no binding | no binding |  |  | RSpondin2-AP (from UniProt Q8BFU0 24-243) (ligand)
binds | binds |  |  | Wise-AP (from UniProt Q9CQN4 24-206) (ligand)
 |  | binds | binds | RAP-AP (ligand, UniProt P55302 29-360) QPIAGHGGKYSREKNEPEMAAKRESGEEFRMEKLNQLWEKAKRLHLSPVRLAELHSDLKIQERDELNWKKLKVEGLDKDGEKEAKLIHNLNVILARYGLDGRKDAQMVHSNALNEDTQDELGDPRLEKLWHKAKTSGKFSSEELDKLWREFLHYKEKIQEYNVLLDTLSRAEEGYENLLSPSDMAHIKSDTLISKHSELKDRLRSINQGLDRLRKVSHQGYGSTTEFEEPRVIDLWDLAQSANFTEKELESFREELKHFEAKIEKHNHYQKQLEISHQKLKHVESIGDPEHISRNKEKYVLLEEKTKELGYKVKKHLQDLSSRVSRARHNEL
